# Measured values as given in PubChem BioAssay AID504648 (National Center for Advancing Translational Sciences (NCATS), 2011).
# Out of some 390,000 compounds screened, about 610 (0.16%) were called active. Inconclusive results, whose numbers are uncertain, are shown with a selection of clear calls. The call rests on the fitted dose curve; in most records, active means well fitted inhibition curve with a large enough effect; inconclusive means small, poorly fitted or top-dose-only effect, or effect the other way, or another doubt; inactive means no such curve, though single readings can be large or run the other way. A potency beside an inconclusive call is a rough fit, not a confirmed value.
# Experiment: Nrf2 qHTS screen for inhibitors: counterscreen for cytotoxicity
# Settings: A549 ARE-Fluc cells, CellTiter-Fluor viability, 18-24 h; activity change, negative = cytotoxicity: at 46 µM (top of the series)
# Procedure, shortened: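 A549 ARE_Fluc cells in 5% FBS OPTI-MEM were exposed to compounds in concentration-response for 18-24 h at 37 deg C. Viability was read by CellTiter-Fluor fluorescence (Ex 405/Em 525) after 30 min, before the luciferase read.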
# On the % scale 0 is the no-effect control and ±100 the full control effect; potency means the concentration at half of the fitted maximal effect.
SMILES,Potency,"activity change, negative = cytotoxicity"
CC(C)(C)Nc1nc2nonc2nc1NC(C)(C)C,"inconclusive: 29.1 µM [falling, single point]",
N#CCC(=O)Nc1ccc(C(=O)NNC(=S)NC2CCCCC2)cc1,,inactive: 0.65%
c1cncc(-c2nnc3sc(C4CCCCC4)nn23)c1,,inactive: -3.69%
CC(C)CSc1nc2ccccc2c(=O)[nH]1,"inconclusive: 3.26 µM [activator, partial curve, poor fit]",
CCC1CCC/C1=N\NC(=O)c1ccc(Cl)cc1 (stereo not given),"inconclusive: 20.6 µM [activator, partial curve, poor fit]",
CC(=O)N=c1sc2nc3ccccc3nc2n1N(C(C)=O)C(C)=O,"inconclusive: 25.9 µM [falling, partial curve, poor fit]",
CCCC1=Nc2cc(C(=O)NCCCOC(C)C)ccc2Sc2ccccc21,"inconclusive: 4.11 µM [falling, single point]",
COc1ccc(CCNC(=O)c2ccc3c(c2)NC(=O)C(C(C)C)N3)cc1OC (stereo not given),"inconclusive: 32.6 µM [falling, partial curve, poor fit]",
CC(/C=C/c1ccco1)=N\NC(=O)CNc1cccc(C)c1,,inactive: 7.78%
CCOC(=O)C1=C(c2ccccc2)N=c2s/c(=C\c3cccc(O)c3)c(=O)n2C1c1cccs1 (stereo not given),"inconclusive: 23.1 µM [falling, single point]",
O=C(Nc1ccc2ncccc2c1)c1ccccc1Cl,,inactive: 15.7%
CC(=O)N1CCOc2ccc(S(=O)(=O)N3CCC(C(=O)Nc4ccc(C)cc4)CC3)cc21,,inactive: 0.774%
Cc1ccc(Nc2cc(C)c(C#N)c3nc4ccccc4n23)cc1Cl,,inactive: -1.1%
Cc1ccc(C(=O)N2CCN(c3ccc([N+](=O)[O-])c(N4CCOCC4)c3)CC2)cc1,"inconclusive: 25.9 µM [falling, single point]",
CCC(C)N1C(=O)S/C(=C/c2ccc(N3CCOCC3)cc2C)C1=O (stereo not given),,inactive: -6.96%
O=[N+]([O-])c1cccc(S(=O)(=O)Nc2ccc(Cc3ccncc3)cc2)c1,,inactive: 1.95%
O=C(Cc1ccccc1)N(Cc1cccnc1)c1nc2ccc(F)cc2s1,,inactive: -5.82%
CC(=O)Nc1c(Cl)cc2c(c1Cl)C(=O)c1ccccc1-2,,inactive: -0.349%
CCc1ccc(CNC(=O)CCCN2C(=O)c3cccnc3Oc3ccc(Cl)cc32)cc1,,inactive: -2.78%
Cc1ccc(C)c(S(=O)(=O)N2CCC3(CC2)OCCN3S(=O)(=O)c2cccs2)c1,,inactive: -7.3%
O=[N+]([O-])c1c(Nc2ccc(O)cc2)cc(N2CCOCC2)c2nonc12,"inconclusive: 1.3 µM [falling, partial curve, poor fit]",
CCOc1ccc(C(CCc2ccccc2)NC(=O)c2ccccc2OC)cc1OCC (stereo not given),"inconclusive: 23.1 µM [falling, partial curve, poor fit]",
COc1ccc(-c2nc(CSCC(=O)NC3CCN(Cc4ccccc4)CC3)c(C)o2)cc1OC,,inactive: 0.588%
N=c1c2c(-c3ccccc3)c(-c3ccccc3)n(Cc3ccco3)c2ncn1Cc1ccccc1,,inactive: 4.53%

SMILES,Potency,"activity change, negative = cytotoxicity"
CCC(C)NC(=O)c1sc2nc(C)c(C(=O)Nc3ccc(C)cc3C)c(-c3ccc(Cl)cc3)c2c1N (stereo not given),,inactive: 14.1%
C=CCC[C@H](Cc1ccc(F)cc1)C(=O)OC[C@@H](NC(=O)[C@@H](CC=C)CC(=O)N[C@H](CO)Cc1ccccc1)C(C)(C)C,"inconclusive: 25.9 µM [falling, single point]",
Oc1[nH]c(N=C2N=c3ccccc3=N2)c2ccccc12,"inconclusive: 18.4 µM [falling, partial curve, poor fit]",
CCOc1ccc(OCCC(=O)Nc2cccc(S(=O)(=O)N3CCCC3)c2)cc1,"inconclusive: 29.1 µM [falling, partial curve, poor fit]",
Cc1cccc(Nc2nc(N)c([N+](=O)[O-])c(N3CC(C)CC(C)C3)n2)c1 (stereo not given),active: 20.6 µM,
CN(NC1OC(=O)c2ccccc21)c1c([N+](=O)[O-])cc(C(F)(F)F)cc1[N+](=O)[O-] (stereo not given),"inconclusive: 23.1 µM [falling, partial curve, poor fit]",
Cc1ccc(Cn2c(=N)c(C(=O)NCC3CCCO3)cc3c(=O)n4cccc(C)c4nc32)cc1 (stereo not given),"inconclusive: 18.4 µM [activator, partial curve, poor fit]",
COc1ccc(Nc2cc(C)nc(-n3nc(C)cc3C)n2)cc1Cl,"inconclusive: 1.64 µM [falling, partial curve, poor fit]",
CC1CC(C)CN(c2oc(-c3ccccc3Cl)nc2C#N)C1 (stereo not given),,inactive: 10.3%
O=C(NN=Cc1ccc(O)cc1)C(=O)NN=Cc1ccc(O)cc1,,inactive: -2.41%
c1ccc(-c2ccccc2OCc2nnc3n2CCC3)cc1,"inconclusive: 10.3 µM [activator, partial curve, poor fit]",
COc1cccc(NC(=O)CSc2nc3ccc(NC(=O)c4ccco4)cc3s2)c1,"inconclusive: 29.1 µM [falling, partial curve, poor fit]",
CCN(CC)C(=O)CSc1nnc2nnc3cc(Cl)ccc3n12,"inconclusive: 20.6 µM [falling, single point]",
COc1cc(C2C3=C(Nc4ncnn42)c2ccccc2CC3)cc(OC)c1OC (stereo not given),"inconclusive: 1.3 µM [falling, full curve, poor fit]",
O=C(CN1C(=O)C(c2ccc(F)cc2)=NC12CCCCCC2)Nc1ccc(F)c(Cl)c1,"inconclusive: 29.1 µM [falling, single point]",
N=c1nc(N)nc2n1NC(c1ccc(F)cc1)=CS2,,inactive: -3.11%
COc1ccc(CCNC(=O)Cc2c(Cl)cccc2Cl)cc1,,inactive: 5.54%
Cc1ccc(C)c2sc(N)nc12,"inconclusive: 13 µM [activator, partial curve, poor fit]",
Cc1cc(OCCCSc2nc(-c3ccc(C(C)(C)C)cc3)nc3cc(=O)[nH]n23)ccc1Cl,"inconclusive: 23.1 µM [falling, single point]",
COC(=O)c1sccc1NC(=O)c1cc2c(s1)CCCC2,"inconclusive: 18.4 µM [activator, partial curve, poor fit]",
c1cc(OCCCN2CCCCC2)ccc1CN1CCCCC1,"inconclusive: 20.6 µM [falling, single point]",
COc1ccc(/C=C/C(=O)NC(=S)NNC(=O)c2ccco2)cc1,"inconclusive: 18.4 µM [falling, single point]",
CCCCN(C)C(=O)C1CCCN(c2ncnc3onc(C)c23)C1 (stereo not given),,inactive: -20.8%
O=C(Nc1nc2ccccc2n1CCN1CCOCC1)c1cn(-c2ccccc2)nc1-c1ccccc1,"inconclusive: 20.6 µM [falling, partial curve]",

# A draw from above in order of formula weight, ascending:
SMILES,Potency,"activity change, negative = cytotoxicity"
CC(=O)N=c1sc2nc3ccccc3nc2n1N(C(C)=O)C(C)=O,"inconclusive: 25.9 µM [falling, partial curve, poor fit]",
N=c1c2c(-c3ccccc3)c(-c3ccccc3)n(Cc3ccco3)c2ncn1Cc1ccccc1,,inactive: 4.53%
O=C(Nc1nc2ccccc2n1CCN1CCOCC1)c1cn(-c2ccccc2)nc1-c1ccccc1,"inconclusive: 20.6 µM [falling, partial curve]",

# (list continues)

SMILES,Potency,"activity change, negative = cytotoxicity"
C(=Cc1c[nH]c2ccccc12)c1nccc2ccccc12,"inconclusive: 13 µM [falling, single point]",
CCOc1ccc(C(=O)Nc2cccc(-c3nc4cc(Cl)cc(Cl)c4o3)c2)cc1,,inactive: -1.63%
COc1ccc(Cn2c(=O)c3oc4ccccc4c3n(Cc3cccc(C(F)(F)F)c3)c2=O)cc1,"inconclusive: 20.6 µM [activator, partial curve, poor fit]",
Clc1ccc2nc(N3CCNCC3)nc(-c3ccccc3)c2c1,"inconclusive: 23.1 µM [activator, partial curve, poor fit]",
CC1CCCC=CC2CC(OC(=O)CN(C)C)CC2C(O)C=CC(=O)O1 (stereo not given),"inconclusive: 0.291 µM [falling, full curve]",
c1ccc(-c2ccc(-c3csnn3)cc2)cc1,,inactive: 4.99%
O=C(Nc1ccc(S(=O)(=O)N2CCCC2)cc1)c1ccc(Cl)nc1,,inactive: 1.16%
Cc1ccc(C)c(Cn2c(-c3cccs3)nc3ccccc32)c1,"inconclusive: 23.1 µM [falling, partial curve, poor fit]",
COC(CNC(=O)c1ccc2c3c(onc13)-c1ccccc1C2=O)OC,"inconclusive: 20.6 µM [falling, single point]",
Cc1nc(SCC(=O)NC(=O)NCc2ccccc2)nc(C)c1C,,inactive: -3.81%
CCOC(=O)c1c(C)n(C)c2cc(Br)c(C)cc12,"inconclusive: 0.651 µM [falling, partial curve, poor fit]",
CC(C)(C)c1cc(C(=O)NNc2cc(C(F)(F)F)ccc2Cl)n(Cc2ccccc2)n1,"inconclusive: 29.1 µM [falling, single point]",
Cc1ccc(NS(=O)(=O)c2c(C)[nH]c(=O)[nH]c2=O)c(C)c1,inactive,
CCCCN1CC2([N+](=O)[O-])C=CC(=O)C([N+](=O)[O-])(C1)C2CC(=O)c1ccccc1 (stereo not given),"inconclusive: 32.6 µM [falling, partial curve, poor fit]",
O=C(Cn1cc([N+](=O)[O-])cn1)NC1CCCCCC1,,inactive: 1.38%
CC(C)CC(=O)/C(=C\c1ccc(Cl)cc1Cl)n1cncn1,,inactive: 5.88%
CCCCN(CCCC)CCNC(=O)c1cn(CC)c2ccc(S(=O)(=O)N(C)C3CCCCC3)cc2c1=O,"inconclusive: 3.26 µM [falling, partial curve, poor fit]",
CC(C)Oc1nc(-c2ccccc2O)nc2ccccc12,"inconclusive: 16.4 µM [activator, partial curve, poor fit]",
CC(C)(C)c1ccc(S(=O)(=O)N2CCN(Cc3noc(CCC(=O)N4CCCCC4)n3)CC2)cc1,,inactive: 3.74%
CC1CCN(CCCN2C(=O)C3C(C(=O)Nc4cccc(Cl)c4)C4C=CC3(O4)C2C(=O)NC2CCCCC2)CC1 (stereo not given),"inconclusive: 20.6 µM [falling, partial curve, poor fit]",
CC(/C=N/NC(=O)c1n[nH]c2c1CCC2)=C\c1ccccc1,"inconclusive: 5.8 µM [falling, partial curve, poor fit]",
O=C(CN1CCN(S(=O)(=O)c2ccc(Br)cc2)CC1)N/N=C/c1ccc(Cl)c([N+](=O)[O-])c1,,inactive: -2.35%
